Measured values from US7390873B2, “Antimicrobial cationic peptides” (University of British Columbia, priority 1995, dated 2008).
At least one peptide structure holds a part that was inferred or is arguable (an end, a ring closure or a residue). Where a SMILES comes first, the peptide text is derived from it. Where no end group is shown, it is not given here.

Experiments:
[1] = Dansyl polymyxin B (DPX) displacement assay; format: binding, P. aeruginosa; conditions: for IC50: concentration at which 50% of the maximal DPX was displaced from the LPS, read-out: I50 of DPX displacement; for Imax: maximum displacement, 100% = displacement of all bound DPX
Protocol: Peptides that bind lipopolysaccharide are thought to potentially function as anti-endotoxins. The binding of various CP peptides to P. aeruginosa H103 lipopolysaccharide (LPS) was measured in a dansyl polymyxin B (DPX) displacement assay as described by Moore et al. (AAC, 26 (1986) 496-500). […] Purified LPS was saturated with DPX by titrating LPS with samples of DPX until maximum fluorescence was reached. Fluorescence was measured in a Perkin-Elmer 650-10S fluorescence spectrophotometer and displacement of DPX was measured as a decrease in fluorescence upon the addition of an antimicrobial peptide.
Each peptides I50 value, which is the concentration at which 50% of the maximal DPX was displaced from the LPS, is shown. Also shown is the Imax value, which represents the maximum displacement of […] expressed as a percentage, where 100% indicates displacement of all bound DPX.

E. coli ML-35 = assay: Inner membrane permeabilization, ONPG hydrolysis; format: cell-based; conditions: FIG. 5
P. aeruginosa strain M2 = assay: P. aeruginosa infection model of immunosuppressed mice; format: in vivo; conditions: neutropenic mice
[2] = tested on: LPS-induced TNF in RAW 264.7 macrophage cells; assay: LPS-induced TNF in RAW 264.7 macrophage cells (L929 cytotoxic assay); format: cell-based, murine; conditions: for Decrease of TNF production: 50 μg peptide
[3] = tested on: TNF induction by LPS released by bacteria in RAW 264.7 macrophage cells; assay: TNF induction in RAW 264.7 cells by whole bacteria in transwell filter system; format: cell-based, murine; conditions: intact bacteria
[4] = tested on: all of the organisms tested; assay: MIC assay, summary over the organisms tested; format: cell-based; conditions: gram-negative organisms and C. albicans
Protocol: Any of the art-known methods for measuring antimicrobial activity of peptides can be used in characterizing the peptides of the invention. In these examples, conventional methods were used to determine the minimal inhibitory concentration (MIC) of a peptide in a liquid medium (Amsterdam. Antibiotics in Laboratory Medicine, Williams and Wilkins, Baltimore (1991) 72-78). Briefly, overnight cultures of the test organisms (described below) were diluted to produce an inoculum containing approximately 10^4 to 10^5 organisms. The inoculum size was confirmed by counting the number of organisms on plates that were inoculated at the same time as the liquid cultures.
The concentration of peptide was measured by assaying for free amino groups using a dinitrophenylation assay, with polymyxin B serving as a standard. Doubling dilutions of peptide were performed (32 μg/ml-0.25 μg/ml) in 100 μl volumes in a 96-well mictrotiter plate, and all wells were subsequently inoculated with the diluted culture of the test organism. After 24 hours of incubation at 37° C., the assay was read. The MIC value is the concentration of peptide at which the growth of the test organism was reduced by 50%. The number of cells in the culture inoculum was calculated from the plate count after incubating the plate for 24 hours at 37° C. […]
MIC values also were determined for various derivatives of indolicidin, CP-11, and CP-13. […]

[5] = single dose 8 mg/kg, 30 min after bacteria
[6] = two doses (30 min and 17 hours after challenge)

| Compound | IC50 [1] | Imax [1] | Peptide concentration permeabilizing the inner membrane, fold lower than indolicidin (E. coli ML-35) | % Survival 17 hr (P. aeruginosa strain M2; [5]) | % Survival 24 hr (P. aeruginosa strain M2; [5]) | % Survival 41 hr (P. aeruginosa strain M2; [5]) | % Survival 48 hr (P. aeruginosa strain M2; [5]) | % Survival 65 hr (P. aeruginosa strain M2; [5]) | % Survival 17 hr (P. aeruginosa strain M2; [6]) | % Survival 24 hr (P. aeruginosa strain M2; [6]) | % Survival 41 hr (P. aeruginosa strain M2; [6]) | % Survival 48 hr (P. aeruginosa strain M2; [6]) | % Survival 65 hr (P. aeruginosa strain M2; [6]) | % Survival 72 hr (P. aeruginosa strain M2; [6]) | Decrease of TNF production ([2]; 100 ng Bort E. coli LPS) | Reduction of LPS-induced TNF ([2]; 100 ng E. coli 0111:B4 LPS, 6 hour, peptide 0-50 μg, FIG. 9) | Decrease of TNF production ([2]; P. aeruginosa LPS, 6 hour, FIG. 10) | Reduction of TNF-induction by LPS released by P. aeruginosa ([3]; FIG. 11) | Reduction of TNF-induction by Bort E. coli ([3]; FIG. 12) | MIC fold lower than indolicidin [4] |
| --- | --- | --- | --- | --- | --- | --- | --- | --- | --- | --- | --- | --- | --- | --- | --- | --- | --- | --- | --- | --- |
| ILKKWPWWPWRRK [CP-11] | 4.3 µM | 75% | 4 fold | 100% | 100% | 33.3% | 22.2% | 11.1% | 100% | 100% | 37.5% | 25% | 25% | 25% | 74% | 70% | 51% | 97% | 99% | – |
| CC[C@H](C)[C@H](N)C(=O)N[C@@H](CC(C)C)C(=O)N[C@@H](CCCCN)C(=O)N[C@@H](CCCCN)C(=O)N[C@@H](Cc1c[nH]c2ccccc12)C(=O)N1CCC[C@H]1C(=O)N[C@@H](Cc1c[nH]c2ccccc12)C(=O)N[C@@H](Cc1c[nH]c2ccccc12)C(=O)N1CCC[C@H]1C(=O)N[C@@H](Cc1c[nH]c2ccccc12)C(=O)N[C@@H](CCCNC(=N)N)C(=O)N[C@@H](CCCNC(=N)N)C(=O)N[C@@H](CCCCN)C(=O)OC [CP-11C] (H-ILKKWPWWPWRRK-OMe) | 3.1 µM | 78% | – | – | – | – | – | – | – | – | – | – | – | – | – | – | – | – | – | 8 fold |
| CC[C@H](C)[C@H](N)C(=O)N[C@@H](CC(C)C)C(=O)N1CCC[C@H]1C(=O)N[C@@H](Cc1c[nH]c2ccccc12)C(=O)N[C@@H](CCCCN)C(=O)N[C@@H](Cc1c[nH]c2ccccc12)C(=O)N1CCC[C@H]1C(=O)N[C@@H](Cc1c[nH]c2ccccc12)C(=O)N[C@@H](Cc1c[nH]c2ccccc12)C(=O)N1CCC[C@H]1C(=O)N[C@@H](Cc1c[nH]c2ccccc12)C(=O)N[C@@H](CCCNC(=N)N)C(=O)N[C@@H](CCCNC(=N)N)C(=O)OC [Indolicidin-C] | 1.2 µM | 66% | – | – | – | – | – | – | – | – | – | – | – | – | – | – | – | – | – | – |
